Where “and” joins values, the source holds several entries; their conditions need not be identical. Equal values may be shown once. This continues a long series; more values of the same kind are listed elsewhere.
How the values were obtained:
[1] = system: Treponema pallidum pallidum SS14 strain; assay: T. pallidum susceptibility assay, co-culture with Sf1Ep cells, tp0574 (T47) qPCR after 7 days; assay type: cell-based; conditions: replicate wells
[2] = system: Treponema pallidum pallidum Chicago strain; assay: Treated treponemes seeded onto no-antibiotic plate, 7 more days, T47 qPCR (treponemicidal activity); assay type: cell-based; conditions: seeded on no antibiotic plate, replicate wells

## CC(=O)[C@H]1O[C@@H](Oc2ccc(/C=C(\C)C(=O)N[C@@H]3[C@H](O)[C@@H](O)[C@H]4OCO[C@H]4[C@@H]3O)cc2O)[C@@H](O)[C@@H]1O [Hyg A, Hygromycin A]
[1]; Hyg A 0.03 μg/ml
  Mean T47 copies/μL, experimental values: 1524 copies/μL and 2877 copies/μL and 2662 copies/μL and 2752 copies/μL and 3084 copies/μL and 3282 copies/μL and 3342 copies/μL and 2625 copies/μL
[1]; Hyg A 0.06 μg/ml
  Mean T47 copies/μL, experimental values: 984 copies/μL and 888 copies/μL and 837 copies/μL and 911 copies/μL
[1]; Hyg A 1.92 μg/ml
  Mean T47 copies/μL, experimental values: 358 copies/μL and 405 copies/μL and 363 copies/μL and 328 copies/μL and 285 copies/μL and 387 copies/μL and 294 copies/μL and 166 copies/μL
[1]; Hyg A 3.84 μg/ml
  Mean T47 copies/μL, experimental values: 164 copies/μL and 228 copies/μL and 360 copies/μL and 281 copies/μL and 409 copies/μL and 264 copies/μL and 310 copies/μL and 185 copies/μL
[2]; pre-treated with Hygromycin A 0.03 μg/ml
  Mean T47 copies/μL, Expt. values: 5586 copies/μL and 14839 copies/μL and 19191 copies/μL and 17902 copies/μL
[2]; pre-treated with Hygromycin A 0.06 μg/ml
  Mean T47 copies/μL, Expt. values: 50 copies/μL and 908 copies/μL and 1184 copies/μL and 1573 copies/μL
[2]; pre-treated with Hygromycin A 0.12 μg/ml
  Mean T47 copies/μL, Expt. values: 9 copies/μL and 48 copies/μL and 35 copies/μL and 42 copies/μL
[2]; pre-treated with Hygromycin A 0.24 μg/ml
  Mean T47 copies/μL, Expt. values: 37 copies/μL and 13 copies/μL and 27 copies/μL and 48 copies/μL
[2]; pre-treated with Hygromycin A 0.48 μg/ml
  Mean T47 copies/μL, Expt. values: 43 copies/μL and 37 copies/μL
[2]; pre-treated with Hygromycin A 0.96 μg/ml
  Mean T47 copies/μL, Expt. values: 13 copies/μL and 18 copies/μL and 60 copies/μL
[2]; pre-treated with Hygromycin A 1.92 μg/ml
  Mean T47 copies/μL, Expt. values: 13 copies/μL (2×) and 31 copies/μL
[2]; pre-treated with Hygromycin A 3.84 μg/ml
  Mean T47 copies/μL, Expt. values: 18 copies/μL and 23 copies/μL and 30 copies/μL

Source: patent US20240350522A1, “HYGROMYCIN A FOR TREATMENT OF DISEASES AND INFECTIONS” (FLIGHTPATH BIOSCIENCES, INC., priority 2021, published 2024)
